Screening data, single-dose tests

The values are deposited in ChEMBL (CHEMBL3988442, “University of Dundee, Small-Polar-MMV Screening Library” (2021)).

Mtb glucose medium: 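Growth of Mycobacterium tuberculosis over 3 days (7H9 medium with glucose and tyloxapol); the read-out is not stated. Concentration: 50 µM. Direction is inferred from retests: higher values go with more growth inhibition. Size under these conditions: about 69,000 compounds, about 760 of them at 50% or above in at least one test.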
Mtb cholesterol medium: 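Phenotypic screen: M. tuberculosis growth, cholesterol and DPPC medium, 4 days; the read-out is not stated. Concentration: 50 µM. Higher reads as more growth inhibition (inferred: compounds with an IC50 in retests scored well above the rest). Size under these conditions: about 69,000 compounds, about 370 of them at 50% or above in at least one test.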

Values are the deposited “Percent Effect”, in %. How 0% and 100% were set is not recorded. Most values in the screen are low, and negative values occur. Compounds were drawn at random from those tested, without regard to their results. Two or more numbers in one place are separate tests of the same structure; such repeats can differ widely.

| # | Compound | Mtb glucose medium | Mtb cholesterol medium |
|---|---|---|---|
| 1 | `COCc1noc(-c2nn(-c3ccccc3F)c3c2CCC3)n1` | 45.95 | 0.5695 |
| 2 | `CCCn1nc2c(cc1=O)CN(Cc1cc(C)no1)CC2` | -19.79 | -0.0245 |
| 3 | `CC(C)COC(C)C(=O)NCc1ccc(Cn2ccnc2)cc1` (configuration not stated) | 32.92 | 2.262 & -27.07 |
| 4 | `O=C(NCCN1CCOCC1)C1=NOC2(CCN(Cc3nccs3)C2)C1` (configuration not stated) | -27.45 | -17.4 |
| 5 | `CCS(=O)(=O)N1CCC2(CC(=O)N(c3ccccc3C)C2)C1` (configuration not stated) | -16.43 | -0.184 |
| 6 | `COc1ccc(NC(=O)CCn2nc(-c3cccs3)oc2=O)cc1OC` | -7.206 | -25.39 |
| 7 | `[H][C@]12C[C@H](C(=O)NC)N(S(C)(=O)=O)[C@@]1([H])CN(C(=O)c1ccc(C)o1)C2` | 10.92 | -24.27 |
| 8 | `Cc1ccccc1C(=O)NC[C@@H]1CCN(C(=O)c2cscn2)C[C@H]1O` | -2.576 & -31.73 | -21.95 |
| 9 | `[H][C@]12CCC[C@@]1(COCC1CCOCC1)CN(S(C)(=O)=O)C2` | 0.1185 & -11.81 | -5.489 |
| 10 | `CC(C)[C@@H]1CN(S(=O)(=O)c2cccc(C(=O)O)c2)C[C@H]1N(C)C` | -6.563 & -12.39 | -23.51 |
| 11 | `Cc1noc(C)c1CNCC1Cn2nncc2CO1.O=C(O)C(F)(F)F` (configuration not stated) | 7.772 | -9.07 |
| 12 | `Cn1c(CN2CCOC(c3nc(C(C)(C)C)n[nH]3)C2)nnc1C1CC1` (configuration not stated) | -5.482 | 19.62 |
| 13 | `O=C(O)C(F)(F)F.O=C(O)C(F)(F)F.O=C(c1n[nH]c2c1CN(C1CCOC1)CC2)N1CCCC1` (configuration not stated) | 4.941 | -25.07 |
| 14 | `Cc1n[nH]c(C)c1CCc1nc(C2CC2)n[nH]1` | -5.94 & -13.52 | 7.53 |
| 15 | `CC(C)[C@H]1CN(S(=O)(=O)c2cccnc2)C[C@@H]1N` | 20.15 | 8.452 |
| 16 | `CCc1noc(-c2ccc(SCC(=O)O)nc2)n1` | -15.07 | 16.71 |
| 17 | `CCc1ccc(C(=O)N2CCC(c3nncn3CC)CC2)o1` | -1.729 | -3.99 |
| 18 | `CN(C)CCn1ccc2cc(NC(=O)NCc3ccon3)ccc21` | 9.413 | -4.8 |
| 19 | `c1cncc(-c2ccnn2CN2CCOCC2)c1` | -4.451 | -9.541 |
| 20 | `CCn1ncc(CN2CCC(O)(Cn3ccc4ncccc43)CC2)c1C` | 24.85 | -9.567 |
| 21 | `Cn1cnnc1S(=O)(=O)C1CCN(S(=O)(=O)c2ccccc2F)CC1` | 16.73 | 1.427 |
| 22 | `CN(C)CCCn1ccc(-c2cccc(-c3ccccn3)c2)n1` | -13.12 & 19.6 | -1.315 |
| 23 | `Cc1oc(C(C)C)cc1C(=O)N1CCN(c2cnn(C)c(=O)c2)CC1` | 10.74 | 4.049 |
| 24 | `CN(C)Cc1ccc(NC(=O)c2nccn3ccnc23)cc1` | -25.21 | -15.02 |
| 25 | `CC(C)c1cccc(-n2cc(O)c(C(=O)O)n2)c1` | 2.778 | 9.544 |
| 26 | `CC(C)CNC(=O)Nc1cccc(OCC#N)c1` | -48.4 | -20.87 |
| 27 | `Cc1ccc(OCCCNC(=O)C2(C)CC(=O)N3C=CC=CC3=N2)cc1` (configuration not stated) | 1.141 | 13.95 & -3.645 |
| 28 | `CCc1ncc2c(n1)CN(Cc1nc(-c3ccsc3)no1)CC2` | 44.82 | -4.779 |
| 29 | `CC(C)NC(=O)N1CCC2(CCCO2)C1` (configuration not stated) | -16.71 & -58.6 | -12.7 |
| 30 | `CNC(=O)C(C)(C)N1CCC[C@H]1C(=O)NC(C)(C)C` | -27.73 & -14.92 | -26.94 |
| 31 | `CCN(CC)c1ccc(CNC(=O)N2CCC(C#N)CC2)cc1` | -4.123 | -24.26 & -6.193 |
| 32 | `COc1ccccc1N1CCC(CNC(=O)N(C)Cc2ccco2)C1` (configuration not stated) | -7.225 | 11.05 |
| 33 | `CC(C)Nc1ncnc2c1CCN(C(=O)NCc1cccc(F)c1)CC2` | -23.41 | 0.6362 |
| 34 | `O=C(C1CC=CC1)N1CCCn2nnc(CNc3ncccn3)c2C1` | -21.97 | -1.199 |
| 35 | `Cc1ccc(CNCc2nnc3n2CC(C(F)(F)F)CC3)cc1` (configuration not stated) | 20.46 | -2.045 |
| 36 | `Cc1cc(NC(=O)C2CCN(c3nnc(C)c(C)c3C#N)CC2)no1` | -27.77 | -8.583 |
| 37 | `CCc1noc(C)c1C(=O)N1CCCC1c1c(C)nn(C)c1C` (configuration not stated) | -5.357 | 3.245 |
| 38 | `Cc1cccc(CN2CCN(C(=O)c3cnc(C)[nH]c3=O)CC2)c1` | -36.44 | -13.45 |
| 39 | `COc1cc2nc(C)n(CC(=O)NCCCN(C)C)c(=O)c2cc1OC` | -5.918 | 3.175 |
| 40 | `CC(C)N(Cc1nc(-c2cccs2)no1)CC1CCC(=O)N1` (configuration not stated) | -9.875 | 8.067 |
| 41 | `COCCN(Cc1cnn(C)c1)C(=O)C1CCCN(C2CCOCC2)C1` (configuration not stated) | -23.24 & -2.363 | 26.89 |
| 42 | `Cc1nn(C)c2nc(N3CCCCC3c3cccnc3)sc12` (configuration not stated) | -13.44 & 3.614 | 16.15 |
| 43 | `COc1cc(OC)c2nc(NCCN3CCNC3=O)cc(C)c2c1` | -17.73 | 8.481 |
| 44 | `COCc1nn(CC2CC2)c2c1CN(Cc1ccco1)CC2.O=C(O)C(F)(F)F` | -26.14 | 0.6282 |
| 45 | `Cn1ccnc1-c1ccc(NCCC2COc3ccccc3O2)nn1` (configuration not stated) | 56.79 | 5.504 |
| 46 | `Cc1nn(C(C)C)c2cn(CC(=O)NC3CCSCC3)nc12` | 40.8 | -7.751 |
| 47 | `Cc1ccc(C(=O)NS(C)(=O)=O)cc1S(C)(=O)=O` | 3.625 | 6.705 |
| 48 | `Cc1ccc(S(=O)(=O)N2CCCC(c3n[nH]cc3C(=O)N(C)C)C2)cc1` (configuration not stated) | -35.7 | -23.88 |
| 49 | `O=C(O)C(F)(F)F.[H][C@@]12CN(Cc3cnn(C)c3)CCO[C@]1([H])CN(S(=O)(=O)CC)C2` | -9.008 & -27.51 | -9.331 & -22.94 |
| 50 | `COc1ccc(CN2CC[C@@H](N)[C@@H](OC)C2)cc1Cn1cncn1` | -11.59 | -5.065 & -1.161 |
| 51 | `CC(=O)Nn1c(C)cc(CN2CCCN(Cc3ccncc3)CC2)c1C` | 13.82 | -8.628 & -6.492 |
| 52 | `CS(=O)(=O)NCC1CCCN(C(=O)c2ccc3c(c2)CCC3)C1` (configuration not stated) | -9.615 | -1.771 & 5 |
| 53 | `CCCOc1ccc(CNc2cncc(-n3cccn3)n2)cc1` | 10.07 | 31.45 |
| 54 | `CCCc1nc(N2Cc3cnn(Cc4ccc(F)cc4)c3C2)no1` | 18.19 | -9.229 |
| 55 | `CN(Cc1ccc(F)cc1)[C@@H]1CN(C(=O)c2cccs2)C[C@H]1O` | 6.828 | -10.3 |
| 56 | `CCC(=O)N1CCC(Cc2cc(Nc3ncccn3)ncn2)CC1` | 22.63 | 2.175 |
| 57 | `CCN(C(=O)COc1nc(C(C)(C)C)no1)C1CC1` | 12.37 | 10.59 |
| 58 | `c1cn(Cc2nnc(C3CCN(c4nccs4)CC3)n2C2CC2)cn1` | 21.72 | 9.246 |
| 59 | `[H][C@@]12CS(=O)(=O)C[C@]1([H])N(Cc1nc3ccccc3[nH]1)CCN2CC(C)C` | 2.261 | 8.507 |
| 60 | `O=C(O)c1cc(NS(=O)(=O)c2cccc(Cl)c2F)ccc1Cl` | -5.741 | -4.585 |
| 61 | `Brc1ccc(C2(CNCc3cc[nH]c3)CCOCC2)cc1` | 14.54 | 10.72 |
| 62 | `NC(=O)CCCNC(=O)CCc1cc(Br)cs1` | -14.84 | -21.69 |
| 63 | `CCS(=O)(=O)N1CCOC2(CCCN(Cc3ccccn3)C2)C1.O=C(O)C(F)(F)F` (configuration not stated) | -14.99 | -12.65 |
| 64 | `CSCC(=O)N1CCCC(n2ccnc2C(C)C)C1` (configuration not stated) | 5.333 | -20.88 |
| 65 | `COc1cccc(C(=O)NC(c2ccccn2)[C@H]2CC[C@H](CN)CC2)c1` (some centres not stated) | -2.455 | -28.28 |
| 66 | `OC1(CNCCCN2CCc3ccccc32)CCNC1` (configuration not stated) | 25.44 & 25.29 | 3.446 |
| 67 | `CC(c1ccccc1Cl)N1CCN(C(=O)c2ccc(=O)[nH]c2)CC1` (configuration not stated) | -17.06 & -4.126 | -0.9246 |

Once more, the final 8:

- O=C(O)c1cc(NS(=O)(=O)c2cccc(Cl)c2F)ccc1Cl : Mtb glucose medium: -5.741%; Mtb cholesterol medium: -4.585%
- Brc1ccc(C2(CNCc3cc[nH]c3)CCOCC2)cc1 : Mtb glucose medium: 14.54%; Mtb cholesterol medium: 10.72%
- NC(=O)CCCNC(=O)CCc1cc(Br)cs1 : Mtb glucose medium: -14.84%; Mtb cholesterol medium: -21.69%
- CCS(=O)(=O)N1CCOC2(CCCN(Cc3ccccn3)C2)C1.O=C(O)C(F)(F)F (configuration not stated) : Mtb glucose medium: -14.99%; Mtb cholesterol medium: -12.65%
- CSCC(=O)N1CCCC(n2ccnc2C(C)C)C1 (configuration not stated) : Mtb glucose medium: 5.333%; Mtb cholesterol medium: -20.88%
- COc1cccc(C(=O)NC(c2ccccn2)[C@H]2CC[C@H](CN)CC2)c1 (some centres not stated) : Mtb glucose medium: -2.455%; Mtb cholesterol medium: -28.28%
- OC1(CNCCCN2CCc3ccccc32)CCNC1 (configuration not stated) : Mtb glucose medium: 25.44% & 25.29%; Mtb cholesterol medium: 3.446%
- CC(c1ccccc1Cl)N1CCN(C(=O)c2ccc(=O)[nH]c2)CC1 (configuration not stated) : Mtb glucose medium: -17.06% & -4.126%; Mtb cholesterol medium: -0.9246%